# The supplement of paper PMC4604168 (melanoma cell lines)
# The list shows a part of the results. Many values rest on one well or one pass, so single values are uncertain.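 Imaging used 1,536-well plates; nuclei positive for cleaved PARP by antibody were divided by total DNA-stained nuclei to yield the apoptosis fraction. Doses for screening kept most cells viable, and cell lines differ markedly in resting and induced cleaved-PARP levels.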
# Assays:
# Assay in all cases: cleaved PARP positive nuclei fraction relative to DMSO control; melanoma cells; higher = more apoptosis
# Settings in all cases: library dose: low library concentration; 72 h
# 501Mel = test system: 501Mel
# A101D = test system: A101D
# A2058 = test system: A2058
# A375 = test system: A375
# C32 = test system: C32
# CBRC008 = test system: CBRC008 (line from a melanoma biopsy)
# CBRC013 = test system: CBRC013 (line from a melanoma biopsy)
# CBRC014 = test system: CBRC014 (line from a melanoma biopsy)
# CBRC016 = test system: CBRC016 (line from a melanoma biopsy)
# CBRC017 = test system: CBRC017 (line from a melanoma biopsy)
SMILES,cleaved PARP positive nuclei fraction (501Mel) [%],cleaved PARP positive nuclei fraction (A101D) [%],cleaved PARP positive nuclei fraction (A2058) [%],cleaved PARP positive nuclei fraction (A375) [%],cleaved PARP positive nuclei fraction (C32) [%],cleaved PARP positive nuclei fraction (CBRC008) [%],cleaved PARP positive nuclei fraction (CBRC013) [%],cleaved PARP positive nuclei fraction (CBRC014) [%],cleaved PARP positive nuclei fraction (CBRC016) [%],cleaved PARP positive nuclei fraction (CBRC017) [%]
"CC1(C)CCC(c2ccc(Cl)cc2)=C(CN2CCN(c3ccc(C(=O)NS(=O)(=O)c4ccc(N[C@H](CCN5CCOCC5)CSc5ccccc5)c(S(=O)(=O)C(F)(F)F)c4)cc3)CC2)C1 + NCC(=O)Nc1ccc(-n2nc(C(F)(F)F)cc2-c2ccc3c(ccc4ccccc43)c2)cc1 [OSU03012] (first compound 0.4 µM, partner dose 1 µM)",2020,149,143,6080,445,708,200,1400,1040,494
"COc1ccc(C2=N[C@@H](c3ccc(Cl)cc3)[C@@H](c3ccc(Cl)cc3)N2C(=O)N2CCNC(=O)C2)c(OC(C)C)c1 [Nutlin-3] + C=CCn1c(=O)c2cnc(Nc3ccc(N4CCN(C)CC4)cc3)nc2n1-c1cccc(C(C)(C)O)n1 [MK1775] (first compound 0.1 µM, partner dose 0.02 µM)",100,52.6,93.9,218,125,51.3,118,102,77.7,99.9
"NC1(c2ccc(-c3nc4ccn5c(=O)[nH]nc5c4cc3-c3ccccc3)cc2)CCC1 + O=C(CCCCCCC(=O)Nc1ccccc1)NO [vorinostat] (first compound 0.4 µM, partner dose 0.08 µM)",93.5,166,131,60.2,45.1,55.8,89.8,76,152,89.8
"NC(=O)c1ccc(N(C(N)=O)c2c(F)cccc2F)nc1-c1ccc(F)cc1F + Cc1ccc(NC(=O)c2cccc(N(C)C)c2)cc1NC(=O)c1ccc(O)cc1 [ZM336372] (first compound 0.4 µM, partner dose 2 µM)",75.3,86.3,74.7,195,46,169,79.7,96.6,112,92.5
"C[C@@H](N)c1ccc(C(=O)Nc2ccnc3[nH]ccc23)cc1 + C=CCn1c(=O)c2cnc(Nc3ccc(N4CCN(C)CC4)cc3)nc2n1-c1cccc(C(C)(C)O)n1 [MK1775] (first compound 0.4 µM, partner dose 0.02 µM)",78.4,102,97.5,59.9,77,156,122,108,196,101
"CC(=O)O[C@@]12CO[C@@H]1C[C@H](O)[C@@]1(C)C(=O)[C@H](O)C3=C(C)[C@@H](OC(=O)[C@H](O)[C@@H](NC(=O)OC(C)(C)C)c4ccccc4)C[C@@](O)([C@@H](OC(=O)c4ccccc4)[C@H]21)C3(C)C [Docetaxel] + Cc1cc(N2CCOCC2)cc2[nH]c(-c3c(NC[C@@H](O)c4cccc(Cl)c4)cc[nH]c3=O)nc12 [BMS536924] (first compound 0.0001 µM, partner dose 0.2 µM)",349,58,6640,5930,483,386,75,130,292,132
"C[C@]1(O)C[C@@H](c2nc(-c3ccc4ccc(-c5ccccc5)nc4c3)c3c(N)nccn32)C1 + COc1cc2c(Oc3ccc4[nH]c(C)cc4c3F)ncnc2cc1OCCCN1CCCC1 [cediranib] (first compound 0.4 µM, partner dose 0.4 µM)",60.9,285,114,106,109,71.8,77.4,88.6,40.1,82.5
"CN(c1ncccc1CNc1nc(Nc2ccc3c(c2)CC(=O)N3)ncc1C(F)(F)F)S(C)(=O)=O + O=C(CCCCCCC(=O)Nc1ccccc1)NO [vorinostat] (first compound 0.08 µM, partner dose 0.08 µM)",196,85.8,188,97.3,82.7,287,71.9,86.1,90.5,117
"C[C@@H](N)c1ccc(C(=O)Nc2ccnc3[nH]ccc23)cc1 + CN(C)S(=O)(=O)c1ccc2c(c1)/C(=C/c1cc3c([nH]1)CCCC3)C(=O)N2 [SU6656] (first compound 0.4 µM, partner dose 0.4 µM)",84.8,114,75.1,153,230,204,100,78.3,109,93.1

# Record cards (already shown). Values in the order: cleaved PARP positive nuclei fraction (501Mel) [%]	cleaved PARP positive nuclei fraction (A101D) [%]	cleaved PARP positive nuclei fraction (A2058) [%]	cleaved PARP positive nuclei fraction (A375) [%]	cleaved PARP positive nuclei fraction (C32) [%]	cleaved PARP positive nuclei fraction (CBRC008) [%]	cleaved PARP positive nuclei fraction (CBRC013) [%]	cleaved PARP positive nuclei fraction (CBRC014) [%]	cleaved PARP positive nuclei fraction (CBRC016) [%]	cleaved PARP positive nuclei fraction (CBRC017) [%]
# COc1ccc(C2=N[C@@H](c3ccc(Cl)cc3)[C@@H](c3ccc(Cl)cc3)N2C(=O)N2CCNC(=O)C2)c(OC(C)C)c1 [Nutlin-3] + C=CCn1c(=O)c2cnc(Nc3ccc(N4CCN(C)CC4)cc3)nc2n1-c1cccc(C(C)(C)O)n1 [MK1775] (first compound 0.1 µM, partner dose 0.02 µM) as listed: 100	52.6	93.9	218	125	51.3	118	102	77.7	99.9
# C[C@@H](N)c1ccc(C(=O)Nc2ccnc3[nH]ccc23)cc1 + CN(C)S(=O)(=O)c1ccc2c(c1)/C(=C/c1cc3c([nH]1)CCCC3)C(=O)N2 [SU6656] (first compound 0.4 µM, partner dose 0.4 µM) as listed: 84.8	114	75.1	153	230	204	100	78.3	109	93.1
